# Experimental data as given in PubChem BioAssay AID2685 (National Center for Advancing Translational Sciences (NCATS), 2010).
# In all, about 320,000 compounds went through this assay and about 2,100 (0.66%) were called active. The inconclusive results got no clear call from the source; some entries with a clear call stand among them for comparison. Calls follow the shape of the dose curve; as a rule, active = well fitted inhibition curve with a large enough effect in the signal ratio, with a control signal flat (not every such curve was filed as active); inconclusive = small, poorly fitted or top-dose-only effect, or effect the other way, or a change in a side signal; inactive = flat fitted curve, though single readings scatter; the % refers to the signal ratio. A potency beside an inconclusive call is a rough fit, not a confirmed value.
# Assay: qHTS Assay for Lipid Storage Modulators in Drosophila S3 Cells
# Conditions: BODIPY lipid droplet fluorescence, 18-24 h, cells fed with added oleic acid; lipid storage change, negative = inhibition: at 46.1 µM (top of the series) unless noted
# In short: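 Drosophila S3 cells loaded with oleic acid (400 uM, as added) and compounds at several concentrations; lipid droplets imaged by 488-nm laser-scanning cytometry, 500–530 nm intensity and object ratio to cell channel. Percent activity normalized to 20 uM Triacsin C.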
# % is scaled to controls: 0 for no effect and ±100 for the full control effect; potency is read from the fitted curve at half-maximal effect.
SMILES,"lipid storage change, negative = inhibition",Potency,outcome
O=C(O)CCC(=O)Nc1ccc(S(=O)(=O)Nc2nccs2)cc1,inconclusive: 1.45%,–,–
COc1ccc(S(=O)(=O)CC(=O)Nc2nnc(C(F)(F)F)s2)cc1,inconclusive: 2.35%,–,–
O=C(NCCCN1CCOCC1)c1ccccc1-c1ccccc1,inconclusive: -10.1%,–,–
Cc1ccc(NC(=O)CN(C)CC(=O)Nc2ccccc2Oc2ccccc2)cc1,inconclusive: 14.3%,–,–
CC(C)CCN(C)c1ccc(/C=N/n2cnnc2)cc1,–,"inconclusive: 1.3 µM [activator, partial curve]",–
COCCNc1c(-c2ccc(OC)cc2)nc2ccc(Cl)cn12,inconclusive: -21.8%,–,–
Cc1nn(Cc2ccccc2)c(C)c1CCC(=O)O,–,"inconclusive: 0.92 µM [falling, full curve]",–
Cc1ccc2oc(C(=O)NC3CCS(=O)(=O)C3)c(C)c2c1 (configuration not stated),inconclusive: 65.9%,–,–
COc1ccccc1NS(=O)(=O)c1cc(NC(=O)c2[nH]c(C)c(C(C)=O)c2C)ccc1N1CCOCC1,–,"inconclusive: 14.6 µM [falling, single point]",–
COc1ccc(Nc2nc(NN)nc(Nc3ccc(OC)cc3)n2)cc1,inconclusive: 60.5%,–,–
Cc1ccc(NS(=O)(=O)c2cc(C(=O)O)ccc2Cl)cc1,–,active: 2.31 µM,–
CCCC(C(=O)NCCC(C)C)N(Cc1ccc(OC)cc1)C(=O)c1snc(C(N)=O)c1N (configuration not stated),inactive: -29.9%,–,–
O=C(CCSc1nc(-c2ccc3c(c2)OCO3)cc(C(F)(F)F)n1)NCc1ccco1,–,"inconclusive: 6.51 µM [activator, full curve]",–
CC(=O)c1cccc(OCc2cc(C(=O)N(C)CCc3ccccn3)no2)c1,inconclusive: -32.2%,–,–
COc1ccc(C(=O)Nc2nnc(Cc3ccc(OC)c(OC)c3)s2)c(OC)c1,inconclusive: -63.9%,–,–
COCCOCCn1cnc2ccccc21,–,"inconclusive: 25.9 µM [cytotoxic, partial curve]",–
Cc1ccc(Nc2ncnc3c2cnn3C)cc1,inconclusive: -19.8%,–,–
COc1ccc(OCC(=O)Nc2ccc3oc(=O)ccc3c2)cc1,–,"inconclusive: 23.1 µM [falling, single point]",–
CCCCC(=O)Nc1ccccc1N1CCOCC1,inconclusive: -8.47%,–,–
CCC1=NN(S(=O)(=O)c2ccc(C)cc2)C(O)(C(F)(F)F)C1 (configuration not stated),inconclusive: 10.8%,–,–
O=C(CNS(=O)(=O)c1ccccc1)N/N=C/c1ccc(O)cc1,inconclusive: 19.1%,–,–
Cc1cc(C)cc(NC(=O)CC2NCCNC2=O)c1 (configuration not stated),–,"inconclusive: 0.326 µM [falling, full curve, poor fit]",–
C=CCN=C(C)C1=C(O)CCC1=O,–,"inconclusive: 29.1 µM [falling, single point]",–
C/C=C(/C)C(=O)Nc1cccc(C2=NOC3(C2)C[C@@H](C(N)=O)N(C(=O)CC(c2ccccc2)c2ccccc2)C3)c1 (some centres not stated),inconclusive: 10.2%,–,–

# Copied from the results shown, 2 compounds:
SMILES,"lipid storage change, negative = inhibition",Potency,outcome
CCCCC(=O)Nc1ccccc1N1CCOCC1,inconclusive: -8.47%,–,–
CCC1=NN(S(=O)(=O)c2ccc(C)cc2)C(O)(C(F)(F)F)C1 (configuration not stated),inconclusive: 10.8%,–,–

# Following part.

SMILES,"lipid storage change, negative = inhibition",Potency,outcome
CC(C)(C)C(=O)Nc1cc(NC(=O)C(C)(C)C)cc(C(=O)Nc2cc(C(=O)O)cc(C(=O)O)c2)c1,–,"inconclusive: 29.1 µM [activator, single point]",–
O=C(NCCC1=CCCCC1)c1ccc(=O)oc1,–,"inconclusive: 9.2 µM [falling, partial curve, poor fit]",–
Cc1nc(C(=O)Nc2ccc(Cl)cc2Cl)nn1-c1cc(OC(C)C)c(Cl)cc1Cl,inconclusive: 18.2%,–,–
CC(C)COCc1ccc(O)c2ncccc12,–,"inconclusive: 0.164 µM [falling, full curve, poor fit]",–
COc1cccc(NC(=O)CN(C)C(=O)c2ccc(-c3ccc(Cl)cc3)o2)c1,–,"inconclusive: 8.2 µM [activator, partial curve]",–
O=C(CSc1ncn[nH]1)OCN1C(=O)c2ccccc2C1=O,–,"inconclusive: 3.66 µM [falling, single point]",–
O=C(CCc1nc2ccccc2c(=O)[nH]1)Nc1cccc(S(=O)(=O)N2CCCCC2)c1,–,"inconclusive: 1.84 µM [falling, partial curve]",–
c1ccc(-c2csc(Nc3ccc4c(c3)OCCO4)n2)cc1,inconclusive: 17.6%,–,–
COc1cc(OC)cc(C(=O)NNC(=S)NC(=O)c2cccnc2)c1,inconclusive: -15.7%,–,–
Cc1cc(=O)oc2cc(OCC(=O)Nc3c(Cl)cccc3C(F)(F)F)ccc12,inconclusive: -40.5%,–,–
COC(=O)C1=C(C)Nc2nnnn2C1c1cc(OC)ccc1OC (configuration not stated),inconclusive: 20%,–,–
COc1ccc(S(=O)(=O)N[C@@H](C)C(=O)OCC(=O)Nc2cc3oc4ccccc4c3cc2OC)cc1,–,"inconclusive: 7.31 µM [activator, partial curve]",–
Cc1cc(C)n2nc(C(=O)N/N=C/C=C/c3ccccc3)nc2n1,inconclusive: -23.9%,–,–
C=CCn1c(=O)c2c(nc3n2CCCN3Cc2ccccc2)n(C)c1=O,–,"inconclusive: 0.58 µM [activator, single point]",–
NS(=O)(=O)c1ccc(CCNC(=O)c2ccc(OCC3CCCO3)cc2)cc1 (configuration not stated),–,"inconclusive: 0.259 µM [activator, full curve, poor fit]",–
COc1ccccc1NC(=O)C1CCCN(S(=O)(=O)c2ccc3[nH]c(=O)ccc3c2)C1 (configuration not stated),–,"inconclusive: 0.517 µM [activator, partial curve, poor fit]",–
CC(C)(C)c1ccc(C(=O)NCC(=O)N2CCCCCC2)cc1,–,–,inactive [at 46.1 µM]
COc1ccc(/C=C/C(=O)OC(C)CN2CCCCC2)cc1 (configuration not stated),inconclusive: 12.8%,–,–
CC(C)(C)C(=O)Nc1cccc(-c2nnc(-c3cccc(NC(=O)C(C)(C)C)c3)o2)c1,inconclusive: 9.95%,–,–
Cc1ccnc(NC(=O)c2cccc(OC(F)F)c2)n1,inconclusive: -19.9%,–,–
CCn1c(/C=C/c2ccccc2F)nc2ccccc2c1=O,inconclusive: -26%,–,–
Cc1ccc(C(C)C)c(OCC(=O)NNC(=O)Cn2[nH]c(=O)c3ccccc3c2=O)c1,–,"inconclusive: 4.11 µM [falling, full curve, poor fit]",–
Cc1cccc(OCC(=O)N(Cc2nnc(-c3ccccc3Cl)o2)C2CC2)c1,inconclusive: 22.7%,–,–
